Source: PubChem BioAssay AID2685 (National Center for Advancing Translational Sciences (NCATS), 2010)
This is one part of the list. Shown are side measurements of this screen, not its main read-out; they come without a call. The list favours compounds with an active or inconclusive main result. Potencies come from curve fits of mixed quality, noted in brackets.

Test: qHTS Assay for Lipid Storage Modulators in Drosophila S3 Cells;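 on cell number change: cells counted by Cell Tracker Red CMTPX staining in the red channel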
Details: BODIPY lipid droplet fluorescence, 18-24 h; for cell number change: measured here: cell count max response, cells fed with added oleic acid
Summary of the method: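 Laser-scanning cytometry quantifies lipid droplet accumulation (500–530 nm total intensity; droplet/cell object ratio) in oleic acid-fed (400 uM added) Drosophila S3 cells treated with a concentration series. 20 uM Triacsin C defined 100% inhibition.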

[1] = measured here: lipid fluorescence (Fed channel) AC50, cells fed with added oleic acid
[2] = measured here: cell number channel AC50, cells fed with added oleic acid

Compound | cell number change [%] | AC50 [1] | AC50 [2]
N#Cc1ccc(Cl)cc1NC(=O)COC(=O)c1cccc(S(=O)(=O)N2CCOCC2)c1 | -10.6 | 0.058 µM [rising, full curve, poor fit] | 
CCCCC(=O)Nc1ccc(C(=O)NCCN2CCOCC2)cc1 | 9.42 | 1.84 µM [rising, partial curve, poor fit] | 
O=C(CSc1nc2ccc(Nc3nc(N4CCOCC4)nc(N4CCOCC4)n3)cc2s1)NCc1ccco1 | -39.3 | 23.1 µM [falling, single point] | 29.1 µM [falling, single point]
COc1ccc(NC2CCCN(C(=O)CCc3cn[nH]c3)C2)cc1 (stereo unspecified) | 23.1 | 0.00461 µM [rising, full curve, poor fit] | 
Cn1c(/N=C/c2c(O)ccc3ccccc23)nc2ccccc21 | -2.02 | 0.58 µM [falling, full curve] | 
O=C(CSc1nnc(SCc2ccc(Cl)cc2)s1)N/N=C/c1c[nH]c2ccccc12 | -75.2 |  | 16.4 µM [falling, partial curve]
O=[N+]([O-])c1cccc(-c2nnc(-c3ccc4c(c3)OCO4)o2)c1 | 83.3 | 0.231 µM [rising, full curve] | 0.259 µM [rising, full curve, poor fit]
CC(C)c1ccc(S(=O)(=O)N2CCN(C(=S)NCc3ccco3)CC2)cc1 | 16.7 | 23.1 µM [rising, single point] | 
CCn1c(COc2ccc(C)cc2)nnc1SCC(=O)Nc1cc(OC)ccc1OC | -34.1 |  | 0.82 µM [falling, full curve, poor fit]
Cc1ccc(C(=O)Cn2cnc3ccccc3c2=O)cc1C |  | 0.206 µM [rising, full curve, poor fit] | 
Cn1nc(-c2ccccc2)cc1NC(=O)c1cccs1 | -18.6 | 14.6 µM [falling, partial curve, poor fit] | 
O=C(Nc1ccc2c(c1)OCCO2)c1oc2ccccc2c1NC(=O)C1CC1 | -50.5 |  | 
C=CCN1C(=O)c2ccc(C(=O)N3CCN(S(=O)(=O)c4ccc(C(C)C)cc4)CC3)cc2C1=O | 77.1 |  | 18.4 µM [rising, partial curve]
CCOc1ccc(S(=O)(=O)NC(C)C(=O)NCc2ccc3c(c2)OCO3)cc1 (stereo unspecified) | 7.89 | 5.62 µM [falling, single point] | 
Cc1cc(OC(=O)c2ccc(C(C)(C)C)cc2)c([N+](=O)[O-])c(=O)[nH]1 | 1.89 |  | 
COc1ccc(NC(=O)C2Cc3ccccc3CN2C(=O)c2ccco2)cc1 (stereo unspecified) | 14.1 |  | 0.00517 µM [rising, full curve, poor fit]
Cc1ccc2nsnc2c1NS(=O)(=O)c1c(C)ccc2nsnc12 | 15.5 | 0.82 µM [rising, partial curve] | 
COc1ccc(CNC(=O)CSc2nnc3nc(C)cc(C)n23)cc1OC | -13.7 | 25.9 µM [falling, single point] | 
CCN(CC)S(=O)(=O)c1ccc(OC)c(NC(=O)OCc2ccccc2)c1 | 33.3 |  | 20.6 µM [rising, single point]
O=[N+]([O-])c1ccc(CN2CCN(Cc3c[nH]c4ccccc34)CC2)cc1 | -1.78 |  | 
N#Cc1ccccc1Cn1c(=O)n(C2CCCC2)c(=O)c2ccccc21 | 126 |  | 14.6 µM [rising, partial curve]
Cc1cccc(C)c1NC(=O)COC(=O)c1cc(-c2cccnc2)nc2ccccc12 | 12.8 | 0.00461 µM [rising, full curve, poor fit] | 
CCC(=O)N1CCc2cc(S(=O)(=O)CCC(=O)NCCc3ccc(S(N)(=O)=O)cc3)ccc21 | 17.6 |  | 
Cc1ccc(Sc2c([N+](=O)[O-])c(=O)n(C)c3ccccc23)cc1 | -48.4 | 5.8 µM [falling, full curve] | 7.31 µM [falling, partial curve]
CCOC(=O)c1nnn(CC(=O)Nc2cc(F)ccc2F)c1C(=O)OCC | 35.6 |  | 1.84 µM [rising, partial curve]
COc1ccc(C(C#N)N2N=C(C)CC2c2ccccc2)cc1OC (stereo unspecified) | 21.1 |  | 0.00411 µM [rising, full curve, poor fit]
CCOc1ccc(NC(=O)c2ccc(NC(=O)C3CCCO3)cc2)cc1 (stereo unspecified) | 8.57 | 29.1 µM [rising, single point] | 
COc1ccc(Br)cc1CN(C)C(C)C(=O)Nc1cc([N+](=O)[O-])ccc1OC (stereo unspecified) | 16.2 | 0.731 µM [rising, full curve, poor fit] | 
Cc1ccccc1C(=O)N(Cc1cccs1)C1CCS(=O)(=O)C1 (stereo unspecified) | -9.52 | 16.4 µM [rising, single point] | 

Another view of part of the listing above.
CCCCC(=O)Nc1ccc(C(=O)NCCN2CCOCC2)cc1
  cell number change [%]: 9.42; AC50 [1]: 1.84 µM [rising, partial curve, poor fit]
COc1ccc(CNC(=O)CSc2nnc3nc(C)cc(C)n23)cc1OC
  cell number change [%]: -13.7; AC50 [1]: 25.9 µM [falling, single point]
